Test results reported in the supplement of paper PMC10849652.
The list shows a part of the results.

Chains of the proteins cited; added tags and fusions are not shown. Lines headed by an entry give the natural chain unless they say otherwise; changes in a name come on top.
UniProt Q14766: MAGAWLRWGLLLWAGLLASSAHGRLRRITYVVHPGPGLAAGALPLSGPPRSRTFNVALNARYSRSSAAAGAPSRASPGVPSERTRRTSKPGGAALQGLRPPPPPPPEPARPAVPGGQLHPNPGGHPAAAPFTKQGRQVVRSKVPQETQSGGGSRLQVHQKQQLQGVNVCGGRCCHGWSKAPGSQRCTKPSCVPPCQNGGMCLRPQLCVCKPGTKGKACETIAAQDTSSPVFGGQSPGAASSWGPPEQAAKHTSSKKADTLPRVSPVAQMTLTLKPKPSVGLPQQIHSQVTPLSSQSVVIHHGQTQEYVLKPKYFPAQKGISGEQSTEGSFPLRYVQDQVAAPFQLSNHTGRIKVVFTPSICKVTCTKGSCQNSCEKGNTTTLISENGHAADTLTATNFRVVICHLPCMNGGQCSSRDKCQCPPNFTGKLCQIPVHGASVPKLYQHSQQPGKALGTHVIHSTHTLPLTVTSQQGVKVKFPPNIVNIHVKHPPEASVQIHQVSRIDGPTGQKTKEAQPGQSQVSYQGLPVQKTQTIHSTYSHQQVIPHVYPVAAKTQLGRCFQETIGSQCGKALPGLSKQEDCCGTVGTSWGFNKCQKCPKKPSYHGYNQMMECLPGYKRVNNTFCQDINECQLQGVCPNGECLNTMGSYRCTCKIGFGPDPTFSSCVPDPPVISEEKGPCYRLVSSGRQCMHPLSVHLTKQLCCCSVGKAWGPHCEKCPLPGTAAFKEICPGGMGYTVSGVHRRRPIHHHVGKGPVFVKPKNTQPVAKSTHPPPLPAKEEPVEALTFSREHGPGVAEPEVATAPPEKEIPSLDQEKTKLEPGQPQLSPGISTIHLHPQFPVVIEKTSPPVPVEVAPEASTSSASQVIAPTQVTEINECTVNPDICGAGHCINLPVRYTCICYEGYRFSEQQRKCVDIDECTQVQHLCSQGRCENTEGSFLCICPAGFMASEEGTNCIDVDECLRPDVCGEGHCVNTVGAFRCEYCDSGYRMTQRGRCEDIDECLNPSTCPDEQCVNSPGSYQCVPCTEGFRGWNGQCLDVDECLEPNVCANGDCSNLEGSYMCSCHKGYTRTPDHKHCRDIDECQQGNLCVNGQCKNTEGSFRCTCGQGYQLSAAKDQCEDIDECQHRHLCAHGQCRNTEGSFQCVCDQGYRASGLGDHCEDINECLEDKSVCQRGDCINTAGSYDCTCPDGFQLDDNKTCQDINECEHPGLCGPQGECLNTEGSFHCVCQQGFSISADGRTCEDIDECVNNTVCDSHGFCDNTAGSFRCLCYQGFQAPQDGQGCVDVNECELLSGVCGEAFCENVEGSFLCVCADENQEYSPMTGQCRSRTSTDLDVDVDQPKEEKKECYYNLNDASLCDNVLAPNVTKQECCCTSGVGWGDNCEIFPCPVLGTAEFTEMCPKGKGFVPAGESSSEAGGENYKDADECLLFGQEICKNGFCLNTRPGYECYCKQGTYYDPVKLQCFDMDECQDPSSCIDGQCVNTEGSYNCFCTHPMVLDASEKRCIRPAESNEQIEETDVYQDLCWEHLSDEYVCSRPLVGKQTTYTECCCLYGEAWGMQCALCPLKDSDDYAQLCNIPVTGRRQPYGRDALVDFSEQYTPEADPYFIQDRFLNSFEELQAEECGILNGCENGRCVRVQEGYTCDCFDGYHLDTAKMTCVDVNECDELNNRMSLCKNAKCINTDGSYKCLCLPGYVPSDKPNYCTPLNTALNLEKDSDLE
UniProt Q96LZ2: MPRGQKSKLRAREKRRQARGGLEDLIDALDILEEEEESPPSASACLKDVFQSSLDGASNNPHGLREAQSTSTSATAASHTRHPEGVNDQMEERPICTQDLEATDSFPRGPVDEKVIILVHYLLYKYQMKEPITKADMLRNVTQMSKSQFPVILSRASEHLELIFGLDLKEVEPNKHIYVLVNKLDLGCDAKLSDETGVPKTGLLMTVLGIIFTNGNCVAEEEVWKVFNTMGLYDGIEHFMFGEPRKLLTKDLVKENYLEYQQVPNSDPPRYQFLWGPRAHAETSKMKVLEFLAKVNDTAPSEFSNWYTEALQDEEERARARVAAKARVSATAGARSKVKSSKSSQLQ
UniProt Q9UPY8, whole entry, looked up: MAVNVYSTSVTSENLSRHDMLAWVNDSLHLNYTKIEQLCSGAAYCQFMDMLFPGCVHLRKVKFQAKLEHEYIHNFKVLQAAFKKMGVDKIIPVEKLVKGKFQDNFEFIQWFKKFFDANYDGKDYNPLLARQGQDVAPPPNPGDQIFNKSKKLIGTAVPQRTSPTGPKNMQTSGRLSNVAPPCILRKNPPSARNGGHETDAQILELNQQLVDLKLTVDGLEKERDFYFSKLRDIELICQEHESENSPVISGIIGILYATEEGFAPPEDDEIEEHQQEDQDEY
UniProt P83369: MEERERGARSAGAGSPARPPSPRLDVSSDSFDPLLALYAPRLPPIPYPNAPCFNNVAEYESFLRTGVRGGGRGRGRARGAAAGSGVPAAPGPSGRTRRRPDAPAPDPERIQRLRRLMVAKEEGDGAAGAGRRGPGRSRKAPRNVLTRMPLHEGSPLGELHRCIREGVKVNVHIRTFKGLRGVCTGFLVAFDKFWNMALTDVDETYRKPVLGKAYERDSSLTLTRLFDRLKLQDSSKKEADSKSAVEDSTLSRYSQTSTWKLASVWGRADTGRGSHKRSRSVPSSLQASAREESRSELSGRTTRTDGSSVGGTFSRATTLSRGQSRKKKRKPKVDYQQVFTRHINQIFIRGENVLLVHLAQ
UniProt Q13163: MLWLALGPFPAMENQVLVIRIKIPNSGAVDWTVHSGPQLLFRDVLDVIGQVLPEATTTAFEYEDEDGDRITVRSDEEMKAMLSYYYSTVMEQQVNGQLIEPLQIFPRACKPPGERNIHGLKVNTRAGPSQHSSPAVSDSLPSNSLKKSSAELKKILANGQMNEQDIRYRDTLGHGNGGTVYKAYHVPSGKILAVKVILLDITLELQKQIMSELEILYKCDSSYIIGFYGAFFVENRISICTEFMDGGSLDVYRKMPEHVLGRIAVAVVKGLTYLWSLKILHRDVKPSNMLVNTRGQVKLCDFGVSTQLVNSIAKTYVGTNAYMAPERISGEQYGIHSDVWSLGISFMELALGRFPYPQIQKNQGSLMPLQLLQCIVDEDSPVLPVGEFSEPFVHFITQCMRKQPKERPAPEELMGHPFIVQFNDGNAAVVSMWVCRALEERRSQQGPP
UniProt Q12851: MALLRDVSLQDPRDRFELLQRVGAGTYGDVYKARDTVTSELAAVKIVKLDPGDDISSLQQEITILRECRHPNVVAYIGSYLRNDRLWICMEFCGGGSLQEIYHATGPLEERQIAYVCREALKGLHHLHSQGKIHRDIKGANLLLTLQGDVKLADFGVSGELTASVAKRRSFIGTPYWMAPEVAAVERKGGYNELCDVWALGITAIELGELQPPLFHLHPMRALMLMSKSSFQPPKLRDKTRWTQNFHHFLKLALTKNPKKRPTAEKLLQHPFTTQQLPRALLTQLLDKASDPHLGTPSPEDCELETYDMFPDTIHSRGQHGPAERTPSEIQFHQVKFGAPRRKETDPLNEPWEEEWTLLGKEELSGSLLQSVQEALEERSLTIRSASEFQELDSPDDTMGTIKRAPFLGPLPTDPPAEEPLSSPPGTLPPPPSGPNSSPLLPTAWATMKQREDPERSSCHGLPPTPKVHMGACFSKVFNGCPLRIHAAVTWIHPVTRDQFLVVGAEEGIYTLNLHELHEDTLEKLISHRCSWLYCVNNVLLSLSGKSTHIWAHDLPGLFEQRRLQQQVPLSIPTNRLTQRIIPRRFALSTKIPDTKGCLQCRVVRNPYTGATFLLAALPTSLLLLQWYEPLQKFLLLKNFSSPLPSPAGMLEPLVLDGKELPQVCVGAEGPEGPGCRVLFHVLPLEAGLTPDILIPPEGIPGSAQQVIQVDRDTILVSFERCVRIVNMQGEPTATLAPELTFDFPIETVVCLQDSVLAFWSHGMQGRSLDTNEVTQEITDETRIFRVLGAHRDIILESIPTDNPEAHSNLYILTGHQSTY
UniProt Q6P9F7: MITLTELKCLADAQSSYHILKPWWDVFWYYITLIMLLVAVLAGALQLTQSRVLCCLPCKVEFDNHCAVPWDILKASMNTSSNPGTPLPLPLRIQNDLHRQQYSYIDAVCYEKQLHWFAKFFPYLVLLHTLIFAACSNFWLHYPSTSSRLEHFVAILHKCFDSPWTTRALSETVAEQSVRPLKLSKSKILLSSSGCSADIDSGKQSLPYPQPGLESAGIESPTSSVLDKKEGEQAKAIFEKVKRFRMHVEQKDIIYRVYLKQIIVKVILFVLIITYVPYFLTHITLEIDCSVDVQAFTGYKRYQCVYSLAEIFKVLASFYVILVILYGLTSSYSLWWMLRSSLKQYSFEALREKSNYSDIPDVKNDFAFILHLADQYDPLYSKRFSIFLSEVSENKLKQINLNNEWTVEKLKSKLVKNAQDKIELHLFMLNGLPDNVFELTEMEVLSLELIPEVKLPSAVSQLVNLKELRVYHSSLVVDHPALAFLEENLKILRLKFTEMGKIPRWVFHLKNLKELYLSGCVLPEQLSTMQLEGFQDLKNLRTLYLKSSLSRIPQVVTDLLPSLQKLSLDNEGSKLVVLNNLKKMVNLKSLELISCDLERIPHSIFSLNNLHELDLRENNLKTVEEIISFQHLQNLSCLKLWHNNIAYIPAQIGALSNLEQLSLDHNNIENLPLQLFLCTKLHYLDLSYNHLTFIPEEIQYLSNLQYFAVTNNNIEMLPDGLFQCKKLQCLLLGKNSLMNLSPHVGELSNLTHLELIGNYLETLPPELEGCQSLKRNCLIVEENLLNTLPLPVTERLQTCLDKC
UniProt P43355: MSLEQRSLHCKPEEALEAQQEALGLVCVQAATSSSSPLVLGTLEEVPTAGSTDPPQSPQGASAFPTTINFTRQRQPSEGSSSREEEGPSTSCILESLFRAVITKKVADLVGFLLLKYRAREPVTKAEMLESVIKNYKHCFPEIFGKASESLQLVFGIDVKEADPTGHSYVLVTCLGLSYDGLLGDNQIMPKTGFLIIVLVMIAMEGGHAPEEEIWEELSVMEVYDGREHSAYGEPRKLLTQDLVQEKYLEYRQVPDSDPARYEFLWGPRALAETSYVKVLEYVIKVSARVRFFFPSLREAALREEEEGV
UniProt Q9H8J5: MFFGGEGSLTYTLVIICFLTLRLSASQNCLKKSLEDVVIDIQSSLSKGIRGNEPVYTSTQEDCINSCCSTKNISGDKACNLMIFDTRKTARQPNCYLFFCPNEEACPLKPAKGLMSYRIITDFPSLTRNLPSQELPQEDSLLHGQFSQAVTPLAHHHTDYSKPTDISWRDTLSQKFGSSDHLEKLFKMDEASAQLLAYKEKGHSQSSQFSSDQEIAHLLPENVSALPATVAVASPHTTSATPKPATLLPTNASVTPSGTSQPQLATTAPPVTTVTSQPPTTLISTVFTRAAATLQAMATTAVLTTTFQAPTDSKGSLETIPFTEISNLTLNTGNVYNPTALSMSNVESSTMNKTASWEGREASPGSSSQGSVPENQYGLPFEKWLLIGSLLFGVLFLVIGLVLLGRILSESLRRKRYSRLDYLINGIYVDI
UniProt Q969L4: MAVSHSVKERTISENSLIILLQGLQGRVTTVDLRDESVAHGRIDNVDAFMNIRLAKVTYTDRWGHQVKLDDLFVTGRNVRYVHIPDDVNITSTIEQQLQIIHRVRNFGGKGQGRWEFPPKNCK

Legend:
Test in all cases: log2 fold change, soluble protein after heating vs DMSO (PISA); higher = thermal stabilisation; K562 cells, 10 uM, 30 min; active = over 0.2 and 3.5 SD of the protein, either way, in both replicates (recomputed)
[1] = compound: C[C@@H]1COCCN1C2=NC(=NC(=C2)C3(CC3)S(=O)(=O)C)C4=C5C=CNC5=CC=C4
Outline: (§1)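 Quantification of soluble protein used TMTpro 16plex LC-MS/MS, with channel sums equalised. Samples were the supernatant after 21,000xg for 90 min of pooled aliquots from K562 cells (2×10^6 cells/mL) treated with 10 μM compound for 30 min, heated for 3 min over 48°C-58°C, and extracted in PBS with 0.5% NP-40 at 4°C. Values, from duplicates, describe thermal stability against control samples on a log2 fold-change scale.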

[2] = compound: C[C@H](C1=CC=C(C=C1)C(=O)NC2=C3C=CNC3=NC=C2)N
Outline: as §1

duvelisib = compound: C[C@H](Nc1ncnc2nc[nH]c12)c1cc2cccc(Cl)c2c(=O)n1-c1ccccc1 [duvelisib]
Outline: as §1

gandotinib = compound: Cc1cc(Nc2cc(CN3CCOCC3)c3nc(C)c(Cc4ccc(Cl)cc4F)n3n2)n[nH]1 [gandotinib]
Outline: as §1

tozasertib = compound: Cc1cc(Nc2cc(N3CCN(C)CC3)nc(Sc3ccc(NC(=O)C4CC4)cc3)n2)n[nH]1 [tozasertib]
Outline: as §1

[3] = compound: Cc1cc(SCc2sc(-c3ccc(C(F)(F)F)cc3)nc2C)ccc1OCC(=O)O
Outline: as §1

ispinesib = compound: Cc1ccc(C(=O)N(CCCN)[C@@H](c2nc3cc(Cl)ccc3c(=O)n2Cc2ccccc2)C(C)C)cc1 [ispinesib]
Outline: as §1

bafetinib = compound: Cc1ccc(NC(=O)c2ccc(CN3CC[C@H](N(C)C)C3)c(C(F)(F)F)c2)cc1Nc1nccc(-c2cncnc2)n1 [bafetinib]
Outline: as §1

[4] = compound: Cc1cccc(CC(=O)N2CCc3c2ccc(-c2cn(C)c4ncnc(N)c24)c3F)n1
Outline: as §1

nilotinib = compound: Cc1cn(-c2cc(NC(=O)c3ccc(C)c(Nc4nccc(-c5cccnc5)n4)c3)cc(C(F)(F)F)c2)cn1 [nilotinib]
Outline: as §1

[5] = compound: Cc1nc(Nc2n[nH]c3c2CN(C(=O)N[C@H](CN(C)C)c2ccccc2)C3(C)C)c2sccc2n1
Outline: as §1

dasatinib = compound: Cc1nc(Nc2ncc(C(=O)Nc3c(C)cccc3Cl)s2)cc(N2CCN(CCO)CC2)n1 [dasatinib]
Outline: as §1

[6] = compound: Cc1ncc(-c2ccnc(Nc3ccc(S(C)(=O)=O)cc3)n2)n1C(C)C
Outline: as §1

[7] = compound: Cn1cc(-c2ccc3c(c2)CCN3C(=O)Cc2cccc(C(F)(F)F)c2)c2c(N)ncnc21
Outline: as §1

[8] = compound: Cn1cc(-c2ccc3nnc(C(F)(F)c4ccc5ncccc5c4)n3n2)cn1
Outline: as §1

tipifarnib = compound: Cn1cncc1[C@@](N)(c1ccc(Cl)cc1)c1ccc2c(c1)c(-c1cccc(Cl)c1)cc(=O)n2C [tipifarnib]
Outline: as §1

crizotinib = compound: C[C@@H](Oc1cc(-c2cnn(C3CCNCC3)c2)cnc1N)c1c(Cl)ccc(F)c1Cl [crizotinib]
Outline: as §1

doramapimod = compound: Cc1ccc(-n2nc(C(C)(C)C)cc2NC(=O)Nc2ccc(OCCN3CCOCC3)c3ccccc23)cc1 [doramapimod]
Outline: as §1

mubritinib = compound: FC(F)(F)c1ccc(/C=C/c2nc(COc3ccc(CCCCn4ccnn4)cc3)co2)cc1 [mubritinib]
Outline: as §1

[9] = compound: CS(=O)(=O)c1ccc(-c2cnc(N)c(C(=O)Nc3ccccc3)n2)cc1
Outline: as §1

Measured: log2 fold change

LTBP1 isoform 4 (UniProt Q14766)
inactive: [1] -0.097 | [2] -0.107 | duvelisib -0.078 | gandotinib 0.022 | tozasertib -0.069 | [3] -0.074 | ispinesib 0.03 | bafetinib 0.086 | [4] -0.054 | nilotinib 0.173 | [5] 0.046 | dasatinib -0.237 | [6] -0.139 | [7] -0.026 | [8] -0.281 | tipifarnib -0.013

MAGEB10 (UniProt Q96LZ2)
inactive: [2] 0.307 | duvelisib -0.33 | tozasertib -0.049 | [3] 0.093 | nilotinib 0.064 | [5] -0.084 | dasatinib 0.083 | [6] -0.087 | [7] -0.238

MAPRE3 isoform 2 (UniProt Q9UPY8)
inactive: crizotinib 0.22 | [2] 0.06 | doramapimod 0.007 | nilotinib -0.539 | [5] -0.355 | [6] -0.118 | [7] -0.028 | tipifarnib 0.201

LYST (UniProt Q99698)
inactive: [1] 0.053 | duvelisib 0.082 | gandotinib 0.039 | [3] -0.19 | bafetinib -0.27 | [4] -0.397 | nilotinib -0.134 | [5] -0.002 | dasatinib 0.193 | [6] -0.16 | mubritinib -0.238

LSM11 (UniProt P83369)
inactive: [2] 0.022 | gandotinib 0.023 | [4] -0.066 | [7] 0.029

MAP2K5 (UniProt Q13163)
inactive: crizotinib -0.012 | [2] 0.072 | [3] -0.171 | doramapimod 0.053 | ispinesib 0.123 | dasatinib 0.063 | [7] 0.06 | [8] 0

MAP4K2 (UniProt Q12851)
inactive: [9] -0.032 | [2] -0.129 | doramapimod -0.091 | bafetinib -0.116 | nilotinib -0.187 | [5] 0.024 | [6] -0.13 | [7] -0.135 | tipifarnib -0.048

LRRC8B (UniProt Q6P9F7)
inactive: [9] -0.03 | [1] -0.028 | duvelisib -0.091 | [3] 0.177 | ispinesib 0.047 | bafetinib 0.117 | nilotinib 0.118 | [5] 0.145 | dasatinib -0.163 | [6] 0.039 | [8] -0.108 | tipifarnib 0.244 | mubritinib -0.035

MAGEA1 (UniProt P43355)
inactive: crizotinib -0.146 | [1] -0.165 | [2] -0.096 | gandotinib -0.143 | doramapimod 0.066 | ispinesib -0.264 | bafetinib 0.076 | [4] 0.029 | nilotinib -0.052 | [5] -0.036 | [6] 0.079 | [7] 0.034 | [8] -0.07 | tipifarnib -0.07 | mubritinib 0.009

MANSC1 (UniProt Q9H8J5)
inactive: [2] -0.034 | tozasertib -0.007 | nilotinib -0.075 | [5] 0.12 | [6] -0.116 | [7] 0.089

MAN2B1 (UniProt M0QYZ1)
inactive: crizotinib 0.228 | [1] -0.014 | doramapimod 0.036 | tipifarnib 0.159

LSM10 (UniProt Q969L4)
inactive: crizotinib -0.061 | duvelisib 0.113 | tozasertib -0.048 | [3] -0.013 | doramapimod 0.077 | bafetinib 0.132 | nilotinib -0.003 | [5] -0.074 | dasatinib 0.172 | [6] 0.082 | tipifarnib 0.008
